In paper PMC8432861:
Substitutions are numbered along the chain they refer to. Results are given in words; binding and its absence hold for the method and conditions named. Binding seen in cells or lysates may run through a third protein. Some entries that bind do so weakly or less than the wild type. For part of these data: Sequences can lack the tags named with a protein. Each block holds one binder with its values, some of them ahead of it.

Columns and labels:
[1] = target: T1, FLAG-Myc-tagged murine IRF7 K3R mutant (K398R, K400R, K406R) (murine) (UniProt P70434); assay: co-IP; HEK-293T transfected with expression vectors for 24 h, then infected with SeV for 6 h or left untreated; IP lysis buffer (10mM Tris-HCl, pH 7.5, 2mM EDTA, 1% NP40, 150mM NaCl); immunoblot
T1 sequence: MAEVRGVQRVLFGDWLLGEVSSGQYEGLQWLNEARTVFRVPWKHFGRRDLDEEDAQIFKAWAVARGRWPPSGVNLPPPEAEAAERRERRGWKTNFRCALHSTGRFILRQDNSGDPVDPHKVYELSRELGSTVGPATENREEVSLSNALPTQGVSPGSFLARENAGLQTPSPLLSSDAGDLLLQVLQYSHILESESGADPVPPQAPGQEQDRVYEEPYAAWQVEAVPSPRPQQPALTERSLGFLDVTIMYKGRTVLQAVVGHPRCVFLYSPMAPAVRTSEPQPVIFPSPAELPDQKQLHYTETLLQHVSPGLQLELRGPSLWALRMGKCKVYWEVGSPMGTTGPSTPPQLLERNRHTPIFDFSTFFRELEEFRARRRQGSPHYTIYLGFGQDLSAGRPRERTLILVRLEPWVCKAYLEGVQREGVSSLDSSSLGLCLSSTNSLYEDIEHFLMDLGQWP

[2] = target: T2, FLAG-Myc-tagged murine IRF7 WT (murine) (UniProt P70434); assay: as above
T2 sequence: T1 sequence with R398K, R400K, R406K

[3] = target: T3, endogenous IRF7 (Raw264.7) (mouse (endogenous in Raw264.7)) (UniProt P70434); assay: co-IP; endogenous proteins in SeV-infected Raw264.7; IP with an anti-IRF7 antibody or an anti-Ubc12 antibody, control rabbit IgG; immunoblot
T3 sequence: T1 sequence with R398K, R400K, R406K

binding [1]: binds | binding [2]: binds
B1: FLAG-tagged human IRF3 (protein, UniProt Q14653 1-427)
chain: MGTPKPRILPWLVSQLDLGQLEGVAWVNKSRTRFRIPWKHGLRQDAQQEDFGIFQAWAEATGAYVPGRDKPDLPTWKRNFRSALNRKEGLRLAEDRSKDPHDPHKIYEFVNSGVGDFSQPDTSPDTNGGGSTSDTQEDILDELLGNMVLAPLPDPGPPSLAVAPEPCPQPLRSPSLDNPTPFPNLGPSENPLKRLLVPGEEWEFEVTAFYRGRQVFQQTISCPEGLRLVGSEVGDRTLPGWPVTLPDPGMSLTDRGVMSYVRHVLSCLGGGLALWRAGQWLWAQRLGHCHTYWAVSEELLPNSGHGPDGEVPKDKEGGVFDLGPFIVDLITFTEGSGRSPRYALWFCVGESWPQDQPWTKRLVMVKVVPTCLRALVEMARVGGASSLENTVDLHISNSHPLSLTSDQYKAYLQDLVEGMDFQGPGES

binding [3]: binds weakly
B2: endogenous Ubc12 (Raw264.7) (enzyme, UniProt P61082 1-183)
chain: MIKLFSLKQQKKEEESAGGTKGSSKKASAAQLRIQKDINELNLPKTCDISFSDPDDLLNFKLVICPDEGFYKSGKFVFSFKVGQGYPHDPPKVKCETMVYHPNIDLEGNVCLNILREDWKPVLTINSIIYGLQYLFLEPNPEDPLNKEAAEVLQNNRRLFEQNVQRSMRGGYIGSTYFERCLK
